# Experimental data taken from PMC12040169 (PLOS Biology, 2025).
# The list shows a part of the results.
# Test system: T1, CTL2-GFP (C. trachomatis L2/434/Bu, GFP-expressing)
# T1 construct: L2/434/Bu, GFP-expressing
# Parameters: species or system HeLa; Intracellular C. trachomatis growth in HeLa cells, bulk GFP fluorescence relative to DMSO
# Settings: bulk GFP, single well; 28.5 h, 10 µM; inhibitor
row,Structure (SMILES),% of control remaining
1,O=S(=O)(Cc1cccc(F)c1F)c1cc2c(N3CCNCC3)nccc2s1 [CBK045690C],124.457%
2,O=c1c2ccsc2ncn1Cc1nnc(-c2ccc(Br)o2)o1 [CBK295642],144.216%
3,c1ccc(CCNc2cncc(-c3cccs3)n2)nc1 [CBK065510],158.165%
4,Cc1nc2c(C(=O)N3CCOCC3)cnn2c(C)c1Cc1ccccc1 [CBK162201],112.358%
5,O=C(O)CCCCn1c2c(c3ccccc31)CCCC2 [CBK000253],106.729%
6,CC1CCN(Cc2ccc(-c3cn(CC(=O)NCc4ccc(OC(F)(F)F)c(F)c4)nn3)cc2)CC1 [CBK167536],129.249%
7,O=C(O)/C(=C\c1ccc(Cl)cc1)NC(=O)c1ccccc1I [CBK265701],119.94%
8,COc1ccccc1CN(C)C(C)=O [CBK024120],93.6701%
9,NS(=O)(=O)c1ccc(NC(=O)c2cc([N+](=O)[O-])ccc2N2CCOCC2)cc1 [CBK268972],146.686%
10,Cc1ccc(C2(O)CC3CCC(C2)N3C(=O)C2CCC2)cc1 (centres unmarked) [CBK103860],103.39%
11,C#CCNC(=O)c1nn(Cc2ccc(CN3C(=O)CCC3=O)cc2)c2ccc(OC)cc12 [CBK048668],130.098%
12,COc1cncc(-c2ccc(Nc3ccc(OC)nc3)nc2)c1 [CBK037773],200.034%
13,Cc1nc2c(c(=O)[nH]1)CN(C(=O)Cc1c(F)cccc1Cl)CC2 [CBK283589],131.53%
14,CC(NC(=O)Cc1ccccc1F)c1nc2cccnc2n1C(C)C (centres unmarked) [CBK283829],123.398%
15,COC(=O)c1cscc1NC(=O)c1cnc(-c2cccc(C)c2)c(-c2ccc(C(C)=O)s2)c1 [CBK036760],133.988%
16,CN(CC(=O)NCc1ccccc1OC1CCNC1)C(=O)c1ccccc1 (centres unmarked) [CBK028298T],100%
17,CC1(Cn2ccnc2-c2ccccc2C(=O)O)CCCO1 (centres unmarked) [CBK307439],111.061%
18,NS(=O)(=O)c1ccc(CNC(=O)C2(c3ccccc3)CCCC2)cc1 [CBK161523],111.821%
19,CN1CCC[C@H]1C(=O)N1CCN(c2ncccn2)CC1 [CBK144528],113.878%
20,CN(CC(=O)Nc1ccccc1N1CCCC1)Cc1cnn(Cc2ccccc2)c1 [CBK295187],142.019%
21,COc1ccc(C(C)C)cc1-c1cnc2[nH]c(=O)n([C@@H](CO)C(C)C)c2n1 [CBK064495],109.097%
22,Nc1nonc1C(=O)NCCNc1ccc([N+](=O)[O-])cc1 [CBK262577],100%
23,CC1CCN(C(=O)CN2C(=O)N3CCN=C3c3ccccc32)CC1 [CBK283946],138.661%
24,C[C@H](NC(=O)N1CCN(C(=O)CCCc2c[nH]c3ccccc23)CC1)C(=O)O [CBK286749],115.578%
25,CC(=O)Nc1ccc(-c2nnc(SCc3c(Cl)cccc3[N+](=O)[O-])n2C)cc1 [CBK265823],123.138%
26,COCCNC(=O)c1cc(-c2ccccc2)cnc1N(C)S(C)(=O)=O [CBK076484],107.79%

row,Structure (SMILES),% of control remaining
1,COC(=O)CC1C(=O)NCCN1C(=S)NC(=O)c1ccc(-c2ccccc2)cc1 (centres unmarked) [CBK268711],165.745%
2,Cc1ccc(CNC(=O)Cn2nnc(-c3ccc(CN4CC(C)OC(C)C4)cc3)n2)cc1 (centres unmarked) [CBK144554C],99.2327%
3,O=C(O)CCN1CCN(c2ccc(F)cc2)CC1 [CBK287262],151.931%
4,O=C(CCCn1ccnc1)N1CCc2[nH]c3ccccc3c2C1 [CBK281872],140.65%
5,O=C(CSc1nnc(-c2ccccc2)n1-c1ccc(Cl)cc1)NCc1ccco1 [CBK266637],163.113%
6,Cc1nc(Nc2ccc(Cl)cc2)nc(Oc2ccccc2)n1 [CBK003915],72.8595%
7,COc1cc([N+](=O)[O-])ccc1NC(=O)CCN1C(=O)C2C3CCC(C3)C2C1=O (centres unmarked) [CBK265141],134.699%
8,O=c1[nH]nc2c3c4c(sc3ncn12)CCCC4 [CBK284235],125.794%
9,NC(=O)CC1C(=O)N(c2ccc(F)cc2)C(=O)N1NC(=O)CCc1ccccc1 (centres unmarked) [CBK269033],58.7639%
10,COC(=O)C1=C(C)N=c2s/c(=C/c3ccc(OC)c(OC(C)=O)c3)c(=O)n2C1c1cccs1 (centres unmarked) [CBK077753],113.718%
11,COc1ccc2[nH]cc(CCNC(=O)c3ccc4[nH]c(=O)[nH]c4c3)c2c1 [CBK122721],112.366%
12,O=C(CSc1nc2sc3c(c2c(=O)n1Cc1ccco1)CCC3)NCc1ccco1 [CBK268499],132.538%
13,Nc1nnnn1/N=C/c1cc(Cl)cc(Cl)c1OCc1ccc(Cl)cc1Cl [CBK263853],98.2354%
14,CSc1cccc(NC(=O)Nc2ccc3c(c2)OCCO3)c1 [CBK300527],120.402%
15,CCOCCCNC(=O)/C(=C/c1cccnc1)NC(=O)c1ccccc1 [CBK126866],107.005%
16,O=C1NCCNC(=O)C2(C/C=C/COc3ccccc31)CCN(C(=O)CCC1CCCC1)CC2 [CBK291995],87.1173%
17,O=C1NC2(CCc3ccccc31)CCN(C(=O)c1cccnc1)C2 (centres unmarked) [CBK283335],128.534%
18,CCc1ccc2[nH]c3nc(NN)nnc3c2c1 [CBK262734],101.359%
19,CCC1CCCCN1S(=O)(=O)c1ccc(-n2ncc(Cl)c(Cl)c2=O)cc1 (centres unmarked) [CBK305038],49.0843%
20,O=C(NCCn1c(-c2ccncc2)nc2ccccc21)c1ccc(F)c(F)c1 [CBK288577],105.744%
21,CC(C)(C)OC(=O)N1CCN(S(=O)(=O)c2ccc(Cl)c([N+](=O)[O-])c2)CC1 [CBK003165],68.951%
22,O=C(CCc1ccc(F)cc1)N1CCC(c2cccc(Cc3ccccc3)n2)CC1 [CBK286511],122.558%
23,Cc1cc(C(=O)N2CCC(c3nc(C)n4c(C)csc34)CC2)on1 [CBK285247],159.214%
24,CN(C)CCNC(=O)c1cc(-c2ccc(Cl)cc2)on1 [CBK116711T],181.326%
25,OC(CNc1cccc2ccccc12)Cn1c2ccc(Br)cc2c2cc(Br)ccc21 (centres unmarked) [CBK261420],69.256%
26,COc1cc(NC(=O)CN2CCc3c(c(CO)nn3C)C2)cc(OC)c1 [CBK306841],112.451%

# An excerpt from above in order of molecular weight, falling.
row,Structure (SMILES),% of control remaining
9,NC(=O)CC1C(=O)N(c2ccc(F)cc2)C(=O)N1NC(=O)CCc1ccccc1 (centres unmarked) [CBK269033],58.7639%
20,O=C(NCCn1c(-c2ccncc2)nc2ccccc21)c1ccc(F)c(F)c1 [CBK288577],105.744%
11,COc1ccc2[nH]cc(CCNC(=O)c3ccc4[nH]c(=O)[nH]c4c3)c2c1 [CBK122721],112.366%

# Later entries.

row,Structure (SMILES),% of control remaining
1,CCN(CCO)C(=O)c1coc(COc2ccc3sc(C)nc3c2)n1 [CBK307321],121.101%
2,CC(C)NC(=O)N[C@H]1CCN2C(=O)c3cc(-c4ccc(F)cc4F)ccc3NC(=O)[C@H]12 [CBK289346],121.41%
3,OC(COc1ccc(OC(F)(F)F)cc1)CN1CCN(c2nc3ccc(Cl)cc3s2)CC1 (centres unmarked) [CBK074639],76.069%
4,CC(=O)N(C)[C@H]1CC[C@]2(CC1)CNC(=O)c1cc(C)ccc1O2 [CBK281690],93.3671%
5,COc1ccc([C@@]23CC[C@@H](NC(=O)c4ccc(SC(F)(F)F)cc4)C[C@@H]2N(C)CC3)cc1OC [CBK076654T],99.982%
6,CN1CCOc2cc(S(=O)(=O)Nc3cccc(-c4cnco4)c3)ccc21 [CBK067119],92.9612%
7,CC(=O)Nc1ccc([C@@H](O)[C@H]2COCC(=O)N2C)cc1 [CBK289059],138.547%
8,O=C(c1cc[nH]c1)N1CCCC2(CCN(C(=O)c3ccoc3)C2)C1 (centres unmarked) [CBK131629],97.2114%
9,Cc1ccc(CN2CCC(N3C(=O)NC4(CCN(CC(C)C)CC4)C3=O)CC2)cc1C [CBK285822],118.072%
10,CCc1nn(C)cc1CNC1CCCN(c2ccc(C#N)cc2)C1=O (centres unmarked) [CBK304176],94.2824%
11,O=C(CCOc1ccc(F)cc1)Nc1cnc(-c2ccc(F)cc2)c(-c2ccoc2)n1 [CBK037166],128.949%
12,O=C(c1c[nH]c2ccccc12)C(O)C(c1ccccc1)N1CCOCC1 (centres unmarked) [CBK267802],98.6306%
13,Cc1ccccc1OCCCn1cncc1-c1cn(C)nc1C [CBK281813],135.229%
14,CC(NC(=O)Cc1ccc(-c2ccccc2)cc1)c1cccnc1 (centres unmarked) [CBK295147],147.614%
15,C=CCn1c(NCc2ccco2)nc2ccccc21 [CBK269751],128.311%
16,C[C@H](Nc1ccc(C(F)(F)F)cc1[N+](=O)[O-])C(=O)NCCOc1ccccc1F [CBK297535],131.487%
17,CCC1CN(CC(=O)NCc2ccc(OCC(N)=O)cc2)CCO1 (centres unmarked) [CBK305774],141.161%
18,Cc1ccc(NC(=O)c2cc(N3C(=O)c4ccc(C(=O)O)cc4C3=O)ccc2N2CCCCC2)cc1 [CBK265274],100%
19,CCOC(=O)c1ccoc1C[N+](C)(CC)CC [CBK007022I],123.263%
20,O=C(Cn1cccn1)N1CCc2[nH]c3ccccc3c2C1 [CBK281839],144.513%
21,O=C(O)c1ccc(N2C(=O)/C(=C/c3c[nH]c4ccccc34)SC2=S)cc1 [CBK263085],100%
22,O=C(O)C1(Oc2ccc3ccccc3c2)CCN(C2CCNCC2)CC1 [CBK306615],122.488%
23,COc1ccc(-n2ncc(-c3cccnc3)n2)cn1 [CBK112827],86.9166%
24,CCn1c(SCC(=O)Nc2ccc(Br)cc2F)nnc1-c1ccc(OC)cc1 [CBK266172],219.197%
25,O=S(=O)(NC1CCCCC1)c1ccc(S(=O)(=O)N2CCOCC2)cc1 [CBK269618],77.8155%
